The text below walks through data of paper PMC7198492.

Amino acid sequences for entries named in this document (tags omitted).
UniProt Q14790: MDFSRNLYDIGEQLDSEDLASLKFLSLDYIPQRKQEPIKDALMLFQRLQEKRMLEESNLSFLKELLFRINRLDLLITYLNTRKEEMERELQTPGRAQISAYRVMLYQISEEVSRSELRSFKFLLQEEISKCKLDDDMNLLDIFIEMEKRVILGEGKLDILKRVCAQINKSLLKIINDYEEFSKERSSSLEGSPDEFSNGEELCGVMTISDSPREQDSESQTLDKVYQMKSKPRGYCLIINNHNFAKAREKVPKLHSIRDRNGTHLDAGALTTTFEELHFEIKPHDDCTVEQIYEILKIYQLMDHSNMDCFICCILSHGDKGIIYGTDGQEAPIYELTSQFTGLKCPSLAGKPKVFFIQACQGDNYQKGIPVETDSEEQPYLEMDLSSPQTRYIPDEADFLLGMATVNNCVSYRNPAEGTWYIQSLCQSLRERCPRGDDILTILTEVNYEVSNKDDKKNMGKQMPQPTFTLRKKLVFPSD
UniProt Q9Y572: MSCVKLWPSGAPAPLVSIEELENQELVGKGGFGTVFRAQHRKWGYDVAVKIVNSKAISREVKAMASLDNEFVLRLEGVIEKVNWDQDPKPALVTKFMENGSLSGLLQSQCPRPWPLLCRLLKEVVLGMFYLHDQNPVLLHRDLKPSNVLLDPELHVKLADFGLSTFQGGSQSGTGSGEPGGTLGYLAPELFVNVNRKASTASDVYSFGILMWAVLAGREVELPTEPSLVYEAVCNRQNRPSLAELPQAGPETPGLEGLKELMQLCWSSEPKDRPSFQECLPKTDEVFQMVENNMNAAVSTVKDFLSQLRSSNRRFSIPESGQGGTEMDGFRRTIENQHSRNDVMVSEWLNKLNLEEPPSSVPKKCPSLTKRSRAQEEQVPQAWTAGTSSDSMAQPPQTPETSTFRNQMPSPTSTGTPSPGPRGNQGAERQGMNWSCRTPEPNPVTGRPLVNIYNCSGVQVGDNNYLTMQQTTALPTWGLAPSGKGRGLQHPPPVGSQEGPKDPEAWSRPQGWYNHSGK
UniProt Q9QZL0: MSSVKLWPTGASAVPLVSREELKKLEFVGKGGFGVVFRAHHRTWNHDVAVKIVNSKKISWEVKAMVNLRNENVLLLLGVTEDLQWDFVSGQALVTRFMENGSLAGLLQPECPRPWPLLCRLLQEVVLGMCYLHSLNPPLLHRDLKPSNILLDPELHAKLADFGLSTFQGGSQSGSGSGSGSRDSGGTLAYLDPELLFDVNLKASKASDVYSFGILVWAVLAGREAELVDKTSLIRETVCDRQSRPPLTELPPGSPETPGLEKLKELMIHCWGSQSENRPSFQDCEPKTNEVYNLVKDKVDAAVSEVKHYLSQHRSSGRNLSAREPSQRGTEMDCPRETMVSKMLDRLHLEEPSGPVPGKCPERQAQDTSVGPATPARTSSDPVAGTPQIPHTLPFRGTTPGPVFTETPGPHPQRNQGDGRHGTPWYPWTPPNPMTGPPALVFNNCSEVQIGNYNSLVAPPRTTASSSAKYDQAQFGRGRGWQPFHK

Results are given in words; binding and its absence hold for the method and conditions named. In cells and extracts the contact can be indirect. Some entries that bind do so weakly or less than the wild type.

The target of experiment [1] is caspase-8 (human, endogenous in HT-29) (human (endogenous in HT-29)) (UniProt Q14790). Description: co-IP; whole-cell lysates of control and DAPK1-knockdown HT-29 cells treated with zVAD+BV6+TNF (anti-FADD IP) or zVAD+BV6 (anti-caspase-8 IP); Protein G Mag Sepharose, WCE buffer, overnight at 4 °C; Western blot.
Experiment [2] deals with T1, caspase-8 (mouse, endogenous in BMDMs) (mouse (endogenous in BMDMs)) (UniProt O89110).
T1 sequence: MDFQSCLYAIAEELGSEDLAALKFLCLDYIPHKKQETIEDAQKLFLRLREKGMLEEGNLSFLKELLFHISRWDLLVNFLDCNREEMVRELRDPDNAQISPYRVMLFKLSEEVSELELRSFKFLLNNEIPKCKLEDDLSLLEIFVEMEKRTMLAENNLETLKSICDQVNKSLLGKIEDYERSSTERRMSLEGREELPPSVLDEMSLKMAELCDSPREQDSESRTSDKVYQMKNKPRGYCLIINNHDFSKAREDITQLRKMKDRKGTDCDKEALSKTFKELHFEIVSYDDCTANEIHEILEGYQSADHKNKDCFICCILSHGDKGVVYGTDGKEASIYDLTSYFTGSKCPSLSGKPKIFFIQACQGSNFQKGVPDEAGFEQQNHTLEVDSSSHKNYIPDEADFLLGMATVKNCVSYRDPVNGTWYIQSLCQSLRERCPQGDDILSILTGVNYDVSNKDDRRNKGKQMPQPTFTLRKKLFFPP
Description: co-IP; whole-cell lysates of WT and Dapk1-/- mouse BMDMs treated with zVAD+AT-406; immunoprecipitated with anti-FADD or anti-caspase-8, Protein G Mag Sepharose, WCE buffer (25 mM HEPES pH 7.9, 300 mM NaCl, 0.1% Triton X-100), overnight at 4 °C; Western blot.

As to “RIPK3 (human, endogenous in HT-29) (from UniProt Q9Y572 1-518)”, the binding result in experiment [1] is listed as “binds”. In the case of “RIPK3 (mouse, endogenous in BMDMs) (from UniProt Q9QZL0 1-486)”, the binding entry in experiment [2] is given as “binds”.
